# Experimental data reported in PubChem BioAssay AID2284102 (EPA ToxCast).
# Chains of the proteins cited; added tags and fusions are not shown. Lines headed by an entry give the natural chain unless they say otherwise; changes in a name come on top.
# UniProt P07948: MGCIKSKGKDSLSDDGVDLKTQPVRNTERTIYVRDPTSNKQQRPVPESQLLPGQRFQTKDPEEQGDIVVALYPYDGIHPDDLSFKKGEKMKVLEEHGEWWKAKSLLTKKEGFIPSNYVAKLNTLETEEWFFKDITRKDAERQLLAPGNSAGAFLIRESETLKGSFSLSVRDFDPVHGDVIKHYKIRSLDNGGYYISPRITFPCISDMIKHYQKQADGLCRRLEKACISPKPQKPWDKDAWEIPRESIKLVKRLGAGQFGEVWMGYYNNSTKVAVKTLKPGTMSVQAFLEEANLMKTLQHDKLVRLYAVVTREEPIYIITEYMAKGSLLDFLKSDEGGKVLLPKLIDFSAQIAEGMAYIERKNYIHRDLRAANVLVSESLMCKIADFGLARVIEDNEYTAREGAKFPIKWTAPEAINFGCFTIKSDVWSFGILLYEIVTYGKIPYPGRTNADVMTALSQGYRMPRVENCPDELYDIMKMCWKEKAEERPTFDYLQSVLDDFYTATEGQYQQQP
# Inconclusive means that the source gave no clear call. Such entries were picked first, then a sample of the others. Potencies of inconclusive entries are doubtful fits and often do not repeat. Calls of active or inactive are those of the source. Rule for the calls: active = hit-call score of the fitted dose curve at least 0.9, where 1 is the maximum; inconclusive = response in the unintended direction; inactive = score below 0.9.
# Target: Tyrosine-protein kinase Lyn (Homo sapiens) (UniProt P07948)
# Experiment: ERF_FR_ENZ_hLYN: Eurofins (ERF) Enzymatic Radiometric [Km ATP] KinaseProfiler LeadHunter Assay for human LYN Tyrosine Kinase
# Procedure: ERF_FR_ENZ_hLYN is a biochemical, single-readout assay that uses extracted gene-proteins in a cell-free assay. Measurements were taken 0.5 hour after chemical dosing in a 96-well plate. See LYN (B) Human TK Kinase Enzymatic HTRF Assay [Km ATP], Cerep.ERF_FR_ENZ_hLYN is an assay component calculated from the ERF_FR_ENZ_hLYN assay. It is designed to measure enzyme activity using a type of enzyme reporter as detected by fluorescence intensity with HTRF technology.Data from the assay component ERF_FR_ENZ_hLYN was analyzed at the assay endpoint, ERF_FR_ENZ_hLYN, in the positive analysis fitting direction relative to DMSO as the negative control and baseline of activity. Using a type of enzyme reporter, loss-of-signal activity can be used to understand changes in enzymatic activity as they relate to gene LYN. To generalize the intended target to other relatable targets, this assay endpoint is annotated to the kinase intended target family, where the subfamily is non-receptor tyrosine kinase.
# Lyn (h) is incubated with 50 mM Tris pH 7.5, 0.1 mM EGTA, 0.1 mM Na3VO4, 0.1% […], 0.1 mg/mL poly(Glu, Tyr) 4:1, 10 mM MgAcetate and [gamma-33P]-ATP (specific activity and concentration as required). The reaction is initiated by the addition of the Mg/ATP mix. […]
row,Compound,AC50
1,CCCCC[C@H](O)CC(=O)CCc1ccc(O)c(OC)c1,inconclusive: 467 nM
2,COc1cc(/C=C/C(=O)CC(=O)/C=C/c2ccc(O)c(OC)c2)ccc1O,active: 24.6 nM
